One molecule from US20050221429A1 can be followed below.

Amino acid sequences for entries named in this document (tags omitted). Residues count along the entry.
UniProt P06731, residues 35-685: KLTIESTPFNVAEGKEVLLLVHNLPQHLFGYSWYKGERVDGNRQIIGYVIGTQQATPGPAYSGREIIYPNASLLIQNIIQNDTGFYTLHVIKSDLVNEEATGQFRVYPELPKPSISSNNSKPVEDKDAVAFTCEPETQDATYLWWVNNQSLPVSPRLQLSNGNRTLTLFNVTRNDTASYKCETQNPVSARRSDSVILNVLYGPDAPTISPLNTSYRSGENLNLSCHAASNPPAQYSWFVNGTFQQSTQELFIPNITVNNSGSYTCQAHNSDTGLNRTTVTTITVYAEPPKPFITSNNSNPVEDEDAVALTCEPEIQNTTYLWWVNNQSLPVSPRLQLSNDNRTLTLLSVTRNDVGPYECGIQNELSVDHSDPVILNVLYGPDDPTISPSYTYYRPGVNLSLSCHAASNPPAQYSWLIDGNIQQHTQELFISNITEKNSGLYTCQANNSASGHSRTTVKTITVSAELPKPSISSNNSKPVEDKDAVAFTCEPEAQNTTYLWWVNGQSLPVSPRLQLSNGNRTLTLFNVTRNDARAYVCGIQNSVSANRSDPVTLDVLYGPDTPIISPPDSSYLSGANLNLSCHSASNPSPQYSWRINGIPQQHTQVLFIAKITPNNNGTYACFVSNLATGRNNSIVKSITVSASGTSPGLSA

For the test, the target named is CEA (UniProt P06731). The experiment in a line: CEA binding ELISA of culture media from transduced cells, compared with a human IgG ELISA. On the technique in general: ELISA stands for enzyme-linked immunosorbent assay.

Results are given in words; binding and its absence hold for the method and conditions named. Some binding calls cover weakened binding; strength is not graded here.

B1: MN14 antibody (antibody, V domains shown)
VH: EVQLVESGGGVVQPGRSLRLSCSASGFDFTTYWMSWVRQAPGKGLEWIGEIHPDSSTINYAPSLKDRFTISRDNAKNTLFLQMDSLRPEDTGVYFCASLYFGFPWFAYWGQGTPVTVSS
VL: DIQLTQSPSSLSASVGDRVTITCKASQDVGTSVAWYQQKPGKAPKLLIYWTSTRHTGVPSRFSGSGSGTDFTFTISSLQPEDIATYYCQQYSLYRSFGQGTKVEIKR
With B1, the binding entry is recorded as “binds”.
